At least one structure is not confirmed: it was looked up by name or label, or the drawing left a doubt.
Tests used:
[1] = mice, oral; cited from earlier work
A498-luc cells = test: In vivo therapeutic study, subcutaneous human renal cell carcinoma A498-luc xenograft, tumor size by luminescent signal; design: species or system mouse; conditions: oral treatment 60 mg/kg daily; after therapy halted

## CCN(CC)CCNC(=O)c1c(C)[nH]c(/C=C2\C(=O)Nc3ccc(F)cc32)c1C [SU, Sunitinib]
[1]
  optimal preclinical dose for antitumor efficacy: 40-80 mg/kg per day
A498-luc cells
  rate of tumor regrowth compared to micellar nanocomplex groups: much faster

Reference: patent publication US10463646B2, “Micellar polymer-flavonoid conjugate nanocomplex” (Agency for Science, Technology and Research, priority 2014, dated 2019)
